Results as given in article PMC13577022.
No constants are given. Whether binding was seen depends on the method and setting. Some results given as binding are weak or reduced against the parent protein; the word gives no strength.

Molecular target: PhoR-T25 (Salmonella enterica serovar Typhimurium)
Assay: two-hybrid

How did the binding turn out when “T18C-fused wild-type PhoU (from UniProt A0A0F6B922 1-241)” was run?
Its binding is “binds”.
